The target of experiment [1] is T1, endogenous BICC1 of mIMCD3 cells (mouse (endogenous in mIMCD3)) (UniProt Q99MQ1).
T1 sequence: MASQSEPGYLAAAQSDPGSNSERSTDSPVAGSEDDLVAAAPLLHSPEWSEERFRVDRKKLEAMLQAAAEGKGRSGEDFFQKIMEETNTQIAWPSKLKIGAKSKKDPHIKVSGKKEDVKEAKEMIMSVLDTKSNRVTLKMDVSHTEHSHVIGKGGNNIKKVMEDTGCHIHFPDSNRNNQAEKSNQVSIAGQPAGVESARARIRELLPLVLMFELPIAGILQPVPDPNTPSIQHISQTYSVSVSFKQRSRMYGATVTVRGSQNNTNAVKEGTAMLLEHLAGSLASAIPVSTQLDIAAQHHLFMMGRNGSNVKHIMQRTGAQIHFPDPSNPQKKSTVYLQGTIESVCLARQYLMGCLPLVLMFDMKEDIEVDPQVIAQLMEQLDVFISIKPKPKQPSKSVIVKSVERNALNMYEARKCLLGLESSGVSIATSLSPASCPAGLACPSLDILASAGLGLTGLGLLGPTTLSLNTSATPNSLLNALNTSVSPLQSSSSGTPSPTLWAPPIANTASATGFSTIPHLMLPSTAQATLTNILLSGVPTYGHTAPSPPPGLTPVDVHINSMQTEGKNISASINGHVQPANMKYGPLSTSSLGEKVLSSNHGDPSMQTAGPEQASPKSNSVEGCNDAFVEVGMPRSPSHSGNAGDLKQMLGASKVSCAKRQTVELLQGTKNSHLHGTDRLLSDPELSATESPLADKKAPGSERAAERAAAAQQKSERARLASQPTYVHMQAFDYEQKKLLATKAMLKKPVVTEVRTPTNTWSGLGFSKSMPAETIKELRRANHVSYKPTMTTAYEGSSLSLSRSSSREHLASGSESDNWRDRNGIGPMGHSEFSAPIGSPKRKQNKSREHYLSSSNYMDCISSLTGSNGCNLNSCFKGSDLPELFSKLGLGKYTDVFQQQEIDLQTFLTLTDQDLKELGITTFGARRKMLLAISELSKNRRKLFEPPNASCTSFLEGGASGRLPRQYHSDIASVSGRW
Briefly: co-IP.

By UniProt entry, the sequences of proteins in these tests, tags left out.
UniProt Q8CJG0: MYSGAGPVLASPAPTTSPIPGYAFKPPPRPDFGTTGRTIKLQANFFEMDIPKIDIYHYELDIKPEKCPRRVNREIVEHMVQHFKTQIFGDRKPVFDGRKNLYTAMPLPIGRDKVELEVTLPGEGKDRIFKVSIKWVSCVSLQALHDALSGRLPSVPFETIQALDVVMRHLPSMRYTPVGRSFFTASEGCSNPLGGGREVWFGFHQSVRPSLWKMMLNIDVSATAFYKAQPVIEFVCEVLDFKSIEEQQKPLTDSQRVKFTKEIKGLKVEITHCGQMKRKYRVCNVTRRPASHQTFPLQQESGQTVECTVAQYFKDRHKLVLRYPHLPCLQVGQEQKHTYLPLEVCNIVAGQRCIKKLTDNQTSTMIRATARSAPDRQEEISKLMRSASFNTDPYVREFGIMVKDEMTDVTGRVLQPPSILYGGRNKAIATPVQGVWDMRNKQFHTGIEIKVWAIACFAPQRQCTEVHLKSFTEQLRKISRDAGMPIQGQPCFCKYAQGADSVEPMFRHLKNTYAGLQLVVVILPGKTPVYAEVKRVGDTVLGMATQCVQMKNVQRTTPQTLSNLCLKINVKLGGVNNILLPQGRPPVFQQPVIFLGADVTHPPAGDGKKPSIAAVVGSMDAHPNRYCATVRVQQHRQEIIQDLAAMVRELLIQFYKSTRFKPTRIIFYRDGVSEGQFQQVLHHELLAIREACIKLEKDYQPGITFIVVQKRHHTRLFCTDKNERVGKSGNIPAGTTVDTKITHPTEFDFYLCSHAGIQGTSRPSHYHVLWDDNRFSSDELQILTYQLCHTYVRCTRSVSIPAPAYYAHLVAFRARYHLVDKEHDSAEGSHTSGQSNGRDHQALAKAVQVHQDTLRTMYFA

The target of experiment [2] is T1, endogenous BICC1 of mIMCD3 cells (mouse (endogenous in mIMCD3)). Briefly: co-IP. The source holds these as a separate data set.

Like-named read-outs stand apart in the source and are kept apart here. These are yes or no findings as the source states them, for the method shown. In cells and extracts the contact can be indirect. Some results given as binding are weak or reduced against the parent protein; the word gives no strength. For some assays here: Tags and fused reporters may be left off the sequences shown.

In the case of “endogenous AGO2 of mIMCD3 cells (from UniProt Q8CJG0 1-860)”, in experiment [1], the binding result was “binds”.

B1: human WT ANKS3-GFP fusion (protein, UniProt Q6ZW76-1 1-656)
chain: MSELSDEASEPELLNRSLSMWHGLGTQVSGEELDVPLDLHTAASIGQYEVVKECVQRRELDLNKKNGGGWTPLMYASYIGHDTIVHLLLEAGVSVNVPTPEGQTPLMLASSCGNESIAYFLLQQGAELEMKDIQGWTALFHCTSAGHQHMVRFLLDSGANANVREPICGFTPLMEAAAAGHEIIVQYFLNHGVKVDARDHSGATARMLAKQYGHMKIVALMDTYSPSLPKSLYRSPEKYEDLSSSDESCPAPQRQRPCRKKGVSIHEGPRALARITGIGLGGRAPRPRYEQAPPRGYVTFNSSGENPLEEEGLCCRDVTSPINERDVESSSSSSSREEHAFCANLGPVQSSSSSEGLARAQGLSSEASVESNEDSDHACKSSARKQAKSYMKTKNPDSQWPPRAATDREGFLAESSPQTQRAPYSGPQDLAALLEQIGCLKYLQVFEEQDVDLRIFLTLTESDLKEIGITLFGPKRKMTSAIARWHSSARPPGDALELAYADRLEAEMQELAIQLHKRCEEVEATRGQVCQEQELRAVVESCLLEQDRAREDLQARLRETWALARDAALVLDQLRACQAELSSRVRQDQPPGAATLGLAVPPADSKGWQASLQAMSLPELSGALEDRVREMGQALCLVTQSLEKLQVLNGKKWRET
In the case of B1, the binding result in experiment [2] was “binds”.

The values above are taken from doi:10.1101/2024.04.18.588747.
